{
  "source": "patent US20060286181A1",
  "about": "“Diet supplements for causing fast weight loss, improving daytime energy, promoting nighttime relaxation and sleep, controlling appetite and/or increasing metabolism” (priority 2005, published 2006)",
  "origin": "cited, not measured here",
  "test_system": "benzodiazepine receptors",
  "note": "At least one structure is not confirmed: it was looked up by name or label, or the drawing left a doubt.",
  "data": [
    {"smiles": "O=c1cc(-c2ccccc2)oc2cc(O)cc(O)c12", "note": "[Chrysin, 5,7-di-OH-flavone]", "values": [
      {"measurement": "ligand for benzodiazepine receptors", "result": "known ligand for benzodiazepine receptors"}
    ]}
  ]
}
